# Measurements: PubChem BioAssay AID540276 (National Center for Advancing Translational Sciences (NCATS), 2011)
# Several values for one entry are separate records, joined by “and”; a condition that tells them apart may be missing. Equal entries are not always repeated. Out of some 300,000 compounds screened, about 5,400 (1.8%) were called active. The inconclusive results got no clear call from the source; some entries with a clear call stand among them for comparison. Calls come from the whole dose curve; tested in HEK293 cells. Potencies beside an inconclusive call are fits to weak or partial responses and may not hold up.
# Test: qHTS for inhibitors of binding or entry into cells for Marburg Virus
# Details: Marburg virus pseudotyped entry inhibition, cell reporter; series mostly up to 37.8 µM
# Potency is the fitted concentration of half-maximal effect.
row,Compound,Potency
1,CC(C)(C)C(=O)Nc1sc(-c2ccccc2)cc1C(=O)O,"inconclusive: 0.562 µM [inhibitor, full curve, poor fit]"
2,COc1ccccc1/C(C)=N/NC(=S)NCc1ccccc1,"inconclusive: 35.5 µM [inhibitor, single point]"
3,COc1cc2c(cc1NC(=O)c1cccc(F)c1)CCCC2,inactive
4,Cc1ccc(C)c(N2CCN(C(=O)c3ccc4c(Cl)c5c(nc4c3)CCCC5)CC2)c1,inactive
5,N#CC(C#N)=c1ccc2c(c1)NC1(CCCCC1)N=2,"inconclusive: 15.8 µM [inhibitor, single point]"
6,CC(C)NC[C@@H](O)COc1cccc2ccccc12,active: 14.6 µM and active: 17.8 µM
7,O=C(Nc1ccc(C(F)(F)F)cc1)c1cccn(Cc2ccc3c(c2)OC(F)(F)O3)c1=O,"inconclusive: 14.6 µM [inhibitor, partial curve]"
8,COc1ccc(-c2[nH]ncc2CN2CCSCC2)c(OC)c1,inactive
9,CCCCOc1ccc(C(=O)NCC(=O)NC2CCC(C)CC2)cc1 (centres undefined),"inconclusive: 0.316 µM [activator, partial curve, poor fit]"
10,NC1=NN(c2cccc(C(=O)O)c2)C(=O)C1,"inconclusive: 0.0731 µM [inhibitor, full curve, poor fit]"
11,O=C(N/N=C/c1cccc2ccccc12)c1n[nH]c2c1CCCC2,"inconclusive: 0.501 µM [inhibitor, full curve, poor fit]"
12,COC(=O)c1ccccc1NCc1cc(=O)oc2cc(O)c(O)cc12,"inconclusive: 35.5 µM [inhibitor, partial curve, poor fit]"
13,COc1ccc(-c2cc(C(F)(F)F)nc(N3CCN(Cc4ccccc4)CC3)n2)cc1OC,"inconclusive: 6.51 µM [inhibitor, full curve, poor fit]"
14,O=C1CCC(c2ccccc2)N1C(=O)c1cccnc1 (centres undefined),"inconclusive: 0.651 µM [activator, single point]"
15,Cc1cc2ccccn2c1C(=O)c1ccc(NN)c([N+](=O)[O-])c1,active: 8.91 µM
16,Cc1nc2ccccc2n1S(=O)(=O)c1ccc(S(=O)(=O)N2CCCCCC2)cc1,inactive
17,Fc1ccc2c(c1)Sc1ccc(Cl)cc1CC2N1CCN(CCC2OCCO2)CC1 (centres undefined),"inconclusive: 22.4 µM [inhibitor, single point]"
18,O=C(COC(=O)c1n[nH]c2ccccc12)NC1CCCCC1,inactive
19,CCc1nc(NCCc2ccccn2)c2nnn(Cc3ccccc3F)c2n1,"inconclusive: 35.5 µM [inhibitor, single point]"
20,CCCN(CCC)CC(O)Cn1cc(/C=C/C(=O)c2cccs2)c2ccccc21 (centres undefined),"inconclusive: 17.8 µM [inhibitor, single point]"
21,CCCN(CC(=O)Nc1ccccc1C)C(=O)c1ccc(S(=O)(=O)N2CCCCCC2)cc1,"inconclusive: 1.26 µM [inhibitor, single point]"
22,COC(=O)/C=C1\S/C(=N/N=C/c2ccccc2)NC1=O,inactive
23,CNC(=O)/C=C1\NC(C)(C)Cc2c1ccc1ccccc21,"inconclusive: 1.41 µM [activator, partial curve, poor fit]"

row,Compound,Potency
1,COc1cc(/C=C2/NC(=O)N(Cc3ccccc3F)C2=O)cc(OC)c1OC,"inconclusive: 15.8 µM [inhibitor, partial curve, poor fit]"
2,Cc1[nH][nH]c(=O)c1C(c1ccc(-c2ccc(Cl)cc2)o1)c1c(C)[nH][nH]c1=O,"inconclusive: 1.26 µM [activator, single point]"
3,Cc1cccc(NC(=O)c2ccc(OCC3CCCO3)cc2)c1C (centres undefined),"inconclusive: 3.98 µM [activator, full curve, poor fit]"
4,CC(C)(C)c1cc(NC(=O)c2cc(F)c(F)c(F)c2F)no1,"inconclusive: 12.6 µM [inhibitor, partial curve]"
5,COc1cccc(CNC(=O)c2c(O)nc3ccccn3c2=O)c1,inactive
6,Cc1nnc(SCCC(=O)Nc2ccccc2Cl)o1,inactive
7,Cc1nn(C)c(Oc2ccccc2)c1CCNS(=O)(=O)c1ccccc1,"inconclusive: 25.9 µM [inhibitor, partial curve, poor fit]"
8,C/C(=N\NC(=O)c1cc(C2CC2)nc2ccccc12)c1ccc(O)cc1O,"inconclusive: 31.6 µM [inhibitor, partial curve, poor fit]"
9,CCN(CCO)c1ccc(N=Nc2cc(C)[nH]n2)cc1,"inconclusive: 1.78 µM [inhibitor, full curve, poor fit]"
10,O=C(CNC(=O)c1ccc(Cl)cc1)Nc1ccc(Br)cc1C(=O)c1ccccc1,"inconclusive: 12.6 µM [inhibitor, single point]"
11,O=[N+]([O-])c1ccc2[nH]cc(S(=O)(=O)N3CCN(c4cccc(Cl)c4)CC3)c2c1,"inconclusive: 31.6 µM [inhibitor, partial curve, poor fit]"
12,NC(=O)C1CCN(C(=O)Cc2ccc([N+](=O)[O-])cc2)CC1,inactive
13,Cc1cc(/C=C(\C#N)C(=O)Nc2ccccc2F)c(C)[nH]1,"inconclusive: 0.251 µM [activator, partial curve, poor fit]"
14,C#CCCCc1nc2ccccc2c(=O)n1N,"inconclusive: 0.0052 µM [inhibitor, full curve, poor fit]"
15,Cc1nn(Cc2nnc(SCC(=O)Nc3cccc(C(F)(F)F)c3)n2C)c(C)c1[N+](=O)[O-],"inconclusive: 12.6 µM [inhibitor, single point]"
16,O=C(CN1c2cccc3cccc(c23)S1(=O)=O)Nc1ccc(F)c(F)c1F,"inconclusive: 11.2 µM [inhibitor, partial curve, poor fit]"
17,COc1ccc(CCc2nnc(CCC(=O)NCc3ccc4ncccc4c3)o2)cc1,inactive
18,COc1ccc(CCNC(=O)COC(=O)C2CCCCC2)cc1,"inconclusive: 3.55 µM [inhibitor, single point]"
19,CCOc1ccc(C(=O)N2CCCC2)cc1,inactive
20,CSCCC(=O)NC1CCCN(CCc2ccccc2)C1 (centres undefined),inactive
21,O=C(NC1CCN(S(=O)(=O)c2ccccc2)CC1)C1CCCCC1,inactive
22,O=C(COC(=O)c1ccccc1NC(=O)C1CC1)c1ccc2c(c1)OCCO2,inactive
23,COc1cccc(CNC(=O)Cn2ncc3c4ccccc4n(C)c3c2=O)c1,inactive

# Some of the entries so far, tab-delimited:
row	Compound	Potency
9	CCN(CCO)c1ccc(N=Nc2cc(C)[nH]n2)cc1	inconclusive: 1.78 µM [inhibitor, full curve, poor fit]
10	O=C(CNC(=O)c1ccc(Cl)cc1)Nc1ccc(Br)cc1C(=O)c1ccccc1	inconclusive: 12.6 µM [inhibitor, single point]
11	O=[N+]([O-])c1ccc2[nH]cc(S(=O)(=O)N3CCN(c4cccc(Cl)c4)CC3)c2c1	inconclusive: 31.6 µM [inhibitor, partial curve, poor fit]

# Additional compounds:

row,Compound,Potency
1,COc1ccc(N2CCN(c3nc4c(c(=O)n(C)c(=O)n4C)n3Cc3ccccc3)CC2)cc1,active: 10 µM
2,O=C(CCCN1C(=O)CCC1=O)Nc1ccc2c(c1)OCCO2,"inconclusive: 7.94 µM [activator, partial curve, poor fit]"
3,CC1=NN(C(=O)c2ccc(Cn3nc(C)c([N+](=O)[O-])c3C)o2)C(O)(C(F)(F)F)C1 (centres undefined),"inconclusive: 3.98 µM [inhibitor, full curve, poor fit]"
4,O=C(NC(NC(=S)Nc1cccc(C(=O)O)c1)C(Cl)(Cl)Cl)OCc1ccccc1 (centres undefined),"inconclusive: 35.5 µM [activator, single point]"
5,O=c1c2cnn(-c3ccccc3)c2nc(-c2ccco2)n1-c1ccccc1,"inconclusive: 23.1 µM [inhibitor, single point]"
6,Cc1cc(C(=O)OC(C(=O)Nc2cccc(C(F)(F)F)c2)c2ccccc2)c(C)o1 (centres undefined),"inconclusive: 2.51 µM [inhibitor, partial curve, poor fit]"
7,Cc1cccc(NC(=O)CSc2nc3c(oc4ccccc43)c(=O)n2C(C)C)c1,"inconclusive: 11.2 µM [inhibitor, partial curve, poor fit]"
8,Nc1nc(N2CCOCC2)n[nH]1,"inconclusive: 14.1 µM [activator, single point]"
9,CC(C)c1nnc(NC(=O)CSc2nc3ccccc3s2)s1,inactive
10,COc1cc(C2c3c(oc4ccccc4c3=O)C(=O)N2c2nccs2)ccc1O (centres undefined),"inconclusive: 6.31 µM [inhibitor, partial curve]"
11,Cc1nnc2ccc(Oc3ccc(-c4ccccc4)cc3)nn12,"inconclusive: 10.3 µM [inhibitor, single point]"
12,COc1cccc(CNC(=O)C(=O)NCC2OCCCN2S(=O)(=O)c2cc(C)ccc2C)c1 (centres undefined),"inconclusive: 0.316 µM [inhibitor, partial curve, poor fit]"
13,Cc1cccn2c(CNCCCOc3cccnc3)c(C(=O)N3CCOCC3)nc12,inactive
14,Cc1ccc(C(=O)O)cc1NC(=O)Nc1ccc2c(c1)OCO2,"inconclusive: 14.1 µM [activator, partial curve, poor fit]"
15,O=Cc1c(Sc2ccccn2)nc2ccccn2c1=O,inactive
16,CCOc1ccccc1-c1nc(C(N)=O)c2[nH]c(=O)n(-c3ccccc3)c2n1,"inconclusive: 1.26 µM [inhibitor, single point]"
17,CC(C)/C=N\NC(=O)CCCCC(=O)N/N=C/C(C)C,"inconclusive: 4.47 µM [activator, single point]"
18,O=C(O)CC(NC(=O)Cc1ccc([N+](=O)[O-])cc1)c1ccc2c(c1)OCO2 (centres undefined),inactive
19,CC(C)OCCCN1C(=O)c2[nH]nc(-c3ccccc3O)c2C1c1cccc(Cl)c1 (centres undefined),"inconclusive: 18.3 µM [inhibitor, partial curve, poor fit]"
20,CCC(C)NC(=O)C1CCC(CNS(=O)(=O)c2cccc3nsnc23)CC1 (centres undefined),inactive
21,O=C(CCN1CCc2ccccc2CC1)c1ccc2c(c1)OCCO2,inactive
22,COc1ccc(NC(=O)c2cnc(SC)n2-c2ccc(F)cc2)c(OC)c1,active: 12.6 µM
23,Brc1csc(/C=N/Nc2nc3ccccc3s2)c1,"inconclusive: 35.5 µM [inhibitor, single point]"
